Assay results as given in PMC7255043.
Results are given in words; binding and its absence hold for the method and conditions named. In cells and extracts the contact can be indirect. Here binding means that the protein was enriched with, or labelled near, the bait; the list need not be complete.

Chains of the proteins cited; added tags and fusions are not shown.
UniProt Q92878: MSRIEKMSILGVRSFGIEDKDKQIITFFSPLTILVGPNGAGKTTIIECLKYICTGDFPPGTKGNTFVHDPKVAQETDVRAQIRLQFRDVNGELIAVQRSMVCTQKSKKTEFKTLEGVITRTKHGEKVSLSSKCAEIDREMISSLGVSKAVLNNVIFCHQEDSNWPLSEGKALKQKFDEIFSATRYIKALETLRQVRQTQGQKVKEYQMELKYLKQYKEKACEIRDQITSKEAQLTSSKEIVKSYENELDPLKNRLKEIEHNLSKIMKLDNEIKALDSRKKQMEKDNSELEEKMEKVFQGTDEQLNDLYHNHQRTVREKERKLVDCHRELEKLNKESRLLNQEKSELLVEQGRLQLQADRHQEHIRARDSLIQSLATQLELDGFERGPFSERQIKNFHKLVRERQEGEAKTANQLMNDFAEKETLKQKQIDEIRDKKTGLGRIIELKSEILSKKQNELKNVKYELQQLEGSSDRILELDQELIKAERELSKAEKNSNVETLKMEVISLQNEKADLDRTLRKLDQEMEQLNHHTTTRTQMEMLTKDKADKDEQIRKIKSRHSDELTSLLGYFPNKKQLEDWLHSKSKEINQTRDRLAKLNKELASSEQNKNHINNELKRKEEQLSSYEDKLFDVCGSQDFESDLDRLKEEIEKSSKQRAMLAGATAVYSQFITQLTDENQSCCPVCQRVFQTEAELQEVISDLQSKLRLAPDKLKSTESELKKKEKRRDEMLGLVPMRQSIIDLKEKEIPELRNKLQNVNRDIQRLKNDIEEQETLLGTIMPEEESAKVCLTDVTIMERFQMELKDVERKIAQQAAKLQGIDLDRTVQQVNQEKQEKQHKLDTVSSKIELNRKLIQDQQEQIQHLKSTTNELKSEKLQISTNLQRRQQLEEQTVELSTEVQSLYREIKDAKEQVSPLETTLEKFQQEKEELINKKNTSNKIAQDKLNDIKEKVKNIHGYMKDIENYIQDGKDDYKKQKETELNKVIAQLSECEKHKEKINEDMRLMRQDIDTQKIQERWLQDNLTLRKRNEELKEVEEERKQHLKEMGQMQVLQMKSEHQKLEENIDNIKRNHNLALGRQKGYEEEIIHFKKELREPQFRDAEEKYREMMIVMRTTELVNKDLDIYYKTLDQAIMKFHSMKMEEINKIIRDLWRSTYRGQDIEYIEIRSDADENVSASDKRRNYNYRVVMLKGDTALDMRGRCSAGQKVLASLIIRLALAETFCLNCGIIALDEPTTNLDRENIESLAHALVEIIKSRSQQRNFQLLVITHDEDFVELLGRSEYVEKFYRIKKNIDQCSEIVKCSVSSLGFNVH
UniProt Q9H2G2: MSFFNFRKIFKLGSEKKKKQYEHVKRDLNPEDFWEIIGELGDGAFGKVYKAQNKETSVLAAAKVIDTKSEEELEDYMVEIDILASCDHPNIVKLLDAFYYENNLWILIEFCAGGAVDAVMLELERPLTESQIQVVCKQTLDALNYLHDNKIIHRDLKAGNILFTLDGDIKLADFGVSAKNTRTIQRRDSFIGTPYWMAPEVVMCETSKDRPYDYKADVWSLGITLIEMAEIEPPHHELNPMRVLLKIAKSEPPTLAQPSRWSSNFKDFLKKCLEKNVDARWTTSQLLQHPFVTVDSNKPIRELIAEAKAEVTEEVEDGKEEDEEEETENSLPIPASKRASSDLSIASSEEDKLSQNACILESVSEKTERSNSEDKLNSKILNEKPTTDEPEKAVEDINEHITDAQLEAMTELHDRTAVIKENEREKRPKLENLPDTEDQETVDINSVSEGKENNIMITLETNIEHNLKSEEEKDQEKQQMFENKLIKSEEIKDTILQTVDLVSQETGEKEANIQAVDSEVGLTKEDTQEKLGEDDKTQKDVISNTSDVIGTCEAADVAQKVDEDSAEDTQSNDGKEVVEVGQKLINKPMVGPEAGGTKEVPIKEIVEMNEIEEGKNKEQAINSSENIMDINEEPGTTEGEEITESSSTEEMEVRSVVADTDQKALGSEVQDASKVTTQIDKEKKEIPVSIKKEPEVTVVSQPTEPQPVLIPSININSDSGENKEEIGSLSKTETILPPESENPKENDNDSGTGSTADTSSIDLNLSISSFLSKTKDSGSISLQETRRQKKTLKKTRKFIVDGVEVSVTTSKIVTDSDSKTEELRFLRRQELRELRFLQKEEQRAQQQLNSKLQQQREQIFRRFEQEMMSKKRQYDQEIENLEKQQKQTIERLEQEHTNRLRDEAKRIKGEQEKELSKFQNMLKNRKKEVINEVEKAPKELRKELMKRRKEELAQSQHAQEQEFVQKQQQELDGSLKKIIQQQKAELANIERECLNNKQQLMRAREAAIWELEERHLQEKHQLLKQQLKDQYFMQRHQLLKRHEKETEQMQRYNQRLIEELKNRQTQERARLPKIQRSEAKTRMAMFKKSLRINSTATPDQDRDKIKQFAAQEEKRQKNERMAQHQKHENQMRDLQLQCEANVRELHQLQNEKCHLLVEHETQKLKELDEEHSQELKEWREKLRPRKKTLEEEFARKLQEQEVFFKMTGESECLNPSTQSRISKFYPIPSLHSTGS
UniProt Q13177: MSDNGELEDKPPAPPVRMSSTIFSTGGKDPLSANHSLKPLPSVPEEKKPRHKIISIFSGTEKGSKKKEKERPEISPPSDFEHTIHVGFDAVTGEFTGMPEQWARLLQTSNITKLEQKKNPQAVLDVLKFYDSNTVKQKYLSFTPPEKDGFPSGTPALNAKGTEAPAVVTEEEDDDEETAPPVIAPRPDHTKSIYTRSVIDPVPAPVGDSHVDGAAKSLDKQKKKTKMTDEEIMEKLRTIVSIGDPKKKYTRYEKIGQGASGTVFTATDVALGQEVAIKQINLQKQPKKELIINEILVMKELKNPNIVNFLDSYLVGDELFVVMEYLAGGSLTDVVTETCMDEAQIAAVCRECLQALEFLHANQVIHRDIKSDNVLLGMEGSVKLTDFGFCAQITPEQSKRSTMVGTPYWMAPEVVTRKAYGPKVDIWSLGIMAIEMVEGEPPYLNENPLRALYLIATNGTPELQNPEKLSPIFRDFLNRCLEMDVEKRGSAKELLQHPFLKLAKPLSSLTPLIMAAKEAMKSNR

B1: HK1 (protein, UniProt P19367 1-917)
chain: MIAAQLLAYYFTELKDDQVKKIDKYLYAMRLSDETLIDIMTRFRKEMKNGLSRDFNPTATVKMLPTFVRSIPDGSEKGDFIALDLGGSSFRILRVQVNHEKNQNVHMESEVYDTPENIVHGSGSQLFDHVAECLGDFMEKRKIKDKKLPVGFTFSFPCQQSKIDEAILITWTKRFKASGVEGADVVKLLNKAIKKRGDYDANIVAVVNDTVGTMMTCGYDDQHCEVGLIIGTGTNACYMEELRHIDLVEGDEGRMCINTEWGAFGDDGSLEDIRTEFDREIDRGSLNPGKQLFEKMVSGMYLGELVRLILVKMAKEGLLFEGRITPELLTRGKFNTSDVSAIEKNKEGLHNAKEILTRLGVEPSDDDCVSVQHVCTIVSFRSANLVAATLGAILNRLRDNKGTPRLRTTVGVDGSLYKTHPQYSRRFHKTLRRLVPDSDVRFLLSESGSGKGAAMVTAVAYRLAEQHRQIEETLAHFHLTKDMLLEVKKRMRAEMELGLRKQTHNNAVVKMLPSFVRRTPDGTENGDFLALDLGGTNFRVLLVKIRSGKKRTVEMHNKIYAIPIEIMQGTGEELFDHIVSCISDFLDYMGIKGPRMPLGFTFSFPCQQTSLDAGILITWTKGFKATDCVGHDVVTLLRDAIKRREEFDLDVVAVVNDTVGTMMTCAYEEPTCEVGLIVGTGSNACYMEEMKNVEMVEGDQGQMCINMEWGAFGDNGCLDDIRTHYDRLVDEYSLNAGKQRYEKMISGMYLGEIVRNILIDFTKKGFLFRGQISETLKTRGIFETKFLSQIESDRLALLQVRAILQQLGLNSTCDDSILVKTVCGVVSRRAAQLCGAGMAAVVDKIRENRGLDRLNVTVGVDGTLYKLHPHFSRIMHQTVKELSPKCNVSFLLSEDGSGKGAALITAVGVRLRTEASS

These molecules were tested against cyclin-dependent kinase 12 (human (endogenous in SNU-1)) (UniProt Q9NYV4) (assay: affinity purification with mass spectrometry; SNU-1 cell lysates incubated with normal IgG or anti-CDK12 antibody; complex pulled down by Protein A/G beads, SDS/PAGE, trypsin digestion, mass spectrometry).

| binding | Molecule |
| --- | --- |
| binds | RAD50 (from UniProt Q92878 1-1312) |
| binds | SLK (from UniProt Q9H2G2 1-1235) |
| binds | p21 activated kinase 2 (from UniProt Q13177 1-524) |
| binds | EGFR (from UniProt P00533 25-1210) |
| binds | B1 |
